In the test the target is Vibrio cholerae CsrA (Vibrio cholerae) (UniProt A5F9C0). Kind of test: preliminary structural analyses (manuscript in preparation).

By UniProt entry, the sequences of proteins in these tests, tags left out.
UniProt A5F9C0: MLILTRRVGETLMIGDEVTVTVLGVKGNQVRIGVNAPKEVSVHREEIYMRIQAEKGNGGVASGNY

No constants are given. Whether binding was seen depends on the method and setting. Some entries that bind do so weakly or less than the wild type.

This passage reports binding results from article PMC11633198, “Vibrio cholerae CsrA controls ToxR levels by increasing the stability and translation of toxR mRNA”.

Consider “Vibrio cholerae CsrA (from UniProt A5F9C0 1-65)”, for which the binding result is recorded as “binds”.
